PMC8443253
Results are given in words; binding and its absence hold for the method and conditions named. In cells and extracts the contact can be indirect. Some entries that bind do so weakly or less than the wild type. Where a sequence is shown, tags or fusion partners need not be part of it.

Sequences of proteins named here, by UniProt entry; tags and fusion partners are left off. A change or cut given only in a name is not applied to a line headed by its entry.
UniProt O60016: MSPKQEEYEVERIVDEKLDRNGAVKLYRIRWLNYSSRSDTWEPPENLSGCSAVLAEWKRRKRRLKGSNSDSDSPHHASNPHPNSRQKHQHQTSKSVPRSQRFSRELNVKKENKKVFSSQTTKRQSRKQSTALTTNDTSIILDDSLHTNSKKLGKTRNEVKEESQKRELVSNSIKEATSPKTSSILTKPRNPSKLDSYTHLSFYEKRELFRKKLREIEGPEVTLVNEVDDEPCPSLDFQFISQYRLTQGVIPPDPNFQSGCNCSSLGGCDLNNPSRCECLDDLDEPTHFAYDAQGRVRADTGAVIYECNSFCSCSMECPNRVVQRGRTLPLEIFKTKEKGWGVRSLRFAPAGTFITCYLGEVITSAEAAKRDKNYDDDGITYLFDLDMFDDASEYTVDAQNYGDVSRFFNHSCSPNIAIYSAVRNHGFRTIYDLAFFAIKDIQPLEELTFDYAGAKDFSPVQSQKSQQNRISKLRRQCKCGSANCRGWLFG

Molecular target: T1, Rik1-13myc (S. pombe) (UniProt Q10426)
T1 sequence: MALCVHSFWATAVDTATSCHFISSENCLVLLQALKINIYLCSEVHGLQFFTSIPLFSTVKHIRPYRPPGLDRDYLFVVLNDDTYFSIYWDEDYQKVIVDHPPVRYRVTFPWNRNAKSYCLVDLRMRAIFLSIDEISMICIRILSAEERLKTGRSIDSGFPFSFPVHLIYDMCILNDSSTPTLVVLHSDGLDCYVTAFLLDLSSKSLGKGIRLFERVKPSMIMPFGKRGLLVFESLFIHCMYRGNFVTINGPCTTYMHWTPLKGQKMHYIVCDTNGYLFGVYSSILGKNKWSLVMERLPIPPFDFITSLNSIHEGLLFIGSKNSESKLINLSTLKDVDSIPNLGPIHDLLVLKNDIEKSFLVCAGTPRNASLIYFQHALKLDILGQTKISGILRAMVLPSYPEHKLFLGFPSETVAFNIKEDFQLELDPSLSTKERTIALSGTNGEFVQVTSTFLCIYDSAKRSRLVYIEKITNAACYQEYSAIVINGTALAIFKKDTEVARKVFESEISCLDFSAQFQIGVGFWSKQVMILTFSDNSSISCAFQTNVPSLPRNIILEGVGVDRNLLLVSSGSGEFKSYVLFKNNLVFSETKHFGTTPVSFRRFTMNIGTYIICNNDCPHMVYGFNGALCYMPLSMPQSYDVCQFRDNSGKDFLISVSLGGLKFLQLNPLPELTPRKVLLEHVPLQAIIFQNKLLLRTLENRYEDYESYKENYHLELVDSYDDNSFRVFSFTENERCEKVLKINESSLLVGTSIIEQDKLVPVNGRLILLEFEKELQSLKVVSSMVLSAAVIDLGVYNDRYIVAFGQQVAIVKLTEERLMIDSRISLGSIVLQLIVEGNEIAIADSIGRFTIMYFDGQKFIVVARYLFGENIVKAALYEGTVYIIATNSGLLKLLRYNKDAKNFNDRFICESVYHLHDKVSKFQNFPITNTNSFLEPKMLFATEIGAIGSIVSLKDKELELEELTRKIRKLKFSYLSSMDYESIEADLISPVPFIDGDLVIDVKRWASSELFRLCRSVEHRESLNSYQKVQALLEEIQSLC
Assay: co-IP

binding, binds:
3xFLAG-clr4-F256A/F310A/F427A (from UniProt O60016 1-490)
3xFLAG-clr4-D253G/P254G/N255S/F256G (from UniProt O60016 1-490)
3xFLAG-Clr4 (from UniProt O60016 1-490)
